Source: PubChem BioAssay AID1259308 (NCATS, 2017)

Screen: 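Genes whose loss raises luciferase production in HEK293 cells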 (primary screen)
System: human HEK293 embryonic kidney cells stably expressing firefly luciferase (HEK-CMV-Luc2-Hygro)
Reagent: single siRNA against human genes, 0.8 pmol siRNA per well
Timing: 72 h
Read-out: 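Luciferase light (ONE-Glo) measured on one replicate plate set and viability (CellTiter-Glo) on the other, scaled to a negative control siRNA, with robust z-scores and luciferase per cell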
Scale: total luciferase, z-score and total luciferase, % of control: higher = more reporter protein produced
Call rule: 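Active when the median/MAD z-score for overall luciferase is greater than 3; a gene was taken forward for validation with new siRNAs if at least two of its three siRNAs passed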
Meaning of the calls: active = raised luciferase; inactive = no rise
This is an unselected part of about 59,000 deposited reagents. About 1,510 of all reagents (2.6%) were called active. 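Calls use total luciferase alone and ignore viability, so some active siRNAs may act by altering cell number.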 Further read-outs or replicates are left out here.

For MVD [SID160731255], what was measured?
total luciferase, z-score: -0.55; total luciferase, % of control: 70.9; Call: inactive

What did the screen give for MVD [SID160777592]?
total luciferase, z-score: 0.716; total luciferase, % of control: 96.1; Call: inactive

With MVD [SID160777593], what was measured?
total luciferase, z-score: 1.05; total luciferase, % of control: 103; Call: inactive

With SLC25A38 [SID160742653], how do the results read?
total luciferase, z-score: -0.448; total luciferase, % of control: 73; Call: inactive

What did the screen give for SLC25A38 [SID160742654]?
total luciferase, z-score: -0.198; total luciferase, % of control: 77.9; Call: inactive

With SLC25A38 [SID160742655], what was measured?
total luciferase, z-score: 1.25; total luciferase, % of control: 107; Call: inactive

How did the screen score LOC643936 (retired record) [SID160725680]?
total luciferase, z-score: -0.0721; total luciferase, % of control: 80.5; Call: inactive

What did the screen give for LOC643936 (retired record) [SID160725681]?
total luciferase, z-score: 0.982; total luciferase, % of control: 101; Call: inactive

For LOC643936 (retired record) [SID160769057], what does the deposit list?
total luciferase, z-score: -1.96; total luciferase, % of control: 42.9; Call: inactive

Which result is listed for RHD [SID160715893]?
total luciferase, z-score: -0.243; total luciferase, % of control: 77; Call: inactive

What is on record for RHD [SID160715894]?
total luciferase, z-score: -0.471; total luciferase, % of control: 72.5; Call: inactive

What is on record for RHD [SID160731660]?
total luciferase, z-score: -1.38; total luciferase, % of control: 54.4; Call: inactive

For GPRASP3 [SID160750593], how do the results read?
total luciferase, z-score: -1.29; total luciferase, % of control: 56.3; Call: inactive

For GPRASP3 [SID160750594], how do the results read?
total luciferase, z-score: 0.918; total luciferase, % of control: 100; Call: inactive

What is on record for GPRASP3 [SID160750595]?
total luciferase, z-score: 0.341; total luciferase, % of control: 88.7; Call: inactive

For GCNT2 [SID160730941], what does the deposit list?
total luciferase, z-score: -0.0588; total luciferase, % of control: 80.7; Call: inactive

What is on record for GCNT2 [SID160770140]?
total luciferase, z-score: -1.09; total luciferase, % of control: 60.2; Call: inactive

What is on record for GCNT2 [SID160770146]?
total luciferase, z-score: -2.07; total luciferase, % of control: 40.7; Call: inactive

What is on record for TMC5 [SID160749567]?
total luciferase, z-score: 1.25; total luciferase, % of control: 107; Call: inactive

Which result is listed for TMC5 [SID160749568]?
total luciferase, z-score: 0.604; total luciferase, % of control: 93.9; Call: inactive

For TMC5 [SID160749569], what does the deposit list?
total luciferase, z-score: 1.54; total luciferase, % of control: 112; Call: inactive

Targets above whose target name begins with G or g:
GPRASP3 [SID160750593]: total luciferase, z-score = -1.29; total luciferase, % of control = 56.3; Call = inactive
GPRASP3 [SID160750594]: total luciferase, z-score = 0.918; total luciferase, % of control = 100; Call = inactive
GPRASP3 [SID160750595]: total luciferase, z-score = 0.341; total luciferase, % of control = 88.7; Call = inactive
GCNT2 [SID160730941]: total luciferase, z-score = -0.0588; total luciferase, % of control = 80.7; Call = inactive
GCNT2 [SID160770140]: total luciferase, z-score = -1.09; total luciferase, % of control = 60.2; Call = inactive
GCNT2 [SID160770146]: total luciferase, z-score = -2.07; total luciferase, % of control = 40.7; Call = inactive
